# Measured values taken from patent publication US20200276094A1, “COMPOSITIONS FOR SKIN EXPOLIATION AND USE THEREOF” (Allergan, Inc., priority 2011, published 2020).
# For at least one compound, name, drawing or mass did not settle the structure.
# System: subjects having Fitzpatrick Skin Types I-IV
# Conditions: split-face: Retinoic Acid 0.3% right side vs Retinol 2% left side; 7-day; FIG. 1
smiles,measurement,value
CC1=C(/C=C/C(C)=C/C=C/C(C)=C/C(=O)O)C(C)(C)CCC1 [Retinoic Acid],peeling (investigator and subject assessments),more peeling
